The results in this text go back to publication doi:10.1101/2022.10.04.510822 (bioRxiv, 2022).

Sequences of proteins named here, by UniProt entry; tags and fusion partners are left off. A change or cut given only in a name is not applied to a line headed by its entry.
UniProt O95166, whole entry: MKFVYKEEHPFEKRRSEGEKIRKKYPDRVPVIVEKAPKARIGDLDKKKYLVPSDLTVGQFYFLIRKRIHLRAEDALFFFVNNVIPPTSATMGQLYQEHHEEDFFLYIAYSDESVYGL
UniProt Q04206, whole entry: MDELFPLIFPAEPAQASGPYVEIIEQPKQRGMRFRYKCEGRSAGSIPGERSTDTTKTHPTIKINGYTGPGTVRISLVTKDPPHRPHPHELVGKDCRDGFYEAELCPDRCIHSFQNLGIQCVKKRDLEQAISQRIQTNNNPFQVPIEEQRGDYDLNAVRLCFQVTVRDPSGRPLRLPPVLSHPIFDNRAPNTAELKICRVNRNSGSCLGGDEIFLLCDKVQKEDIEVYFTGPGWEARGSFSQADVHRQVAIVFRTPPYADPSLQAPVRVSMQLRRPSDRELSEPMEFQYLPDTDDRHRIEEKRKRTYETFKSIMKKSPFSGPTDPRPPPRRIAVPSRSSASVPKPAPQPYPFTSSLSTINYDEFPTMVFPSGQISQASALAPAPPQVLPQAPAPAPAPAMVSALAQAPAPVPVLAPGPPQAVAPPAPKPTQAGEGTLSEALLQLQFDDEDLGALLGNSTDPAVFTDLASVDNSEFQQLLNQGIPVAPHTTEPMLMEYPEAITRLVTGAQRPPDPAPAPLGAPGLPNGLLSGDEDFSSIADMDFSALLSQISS
UniProt O60264, whole entry: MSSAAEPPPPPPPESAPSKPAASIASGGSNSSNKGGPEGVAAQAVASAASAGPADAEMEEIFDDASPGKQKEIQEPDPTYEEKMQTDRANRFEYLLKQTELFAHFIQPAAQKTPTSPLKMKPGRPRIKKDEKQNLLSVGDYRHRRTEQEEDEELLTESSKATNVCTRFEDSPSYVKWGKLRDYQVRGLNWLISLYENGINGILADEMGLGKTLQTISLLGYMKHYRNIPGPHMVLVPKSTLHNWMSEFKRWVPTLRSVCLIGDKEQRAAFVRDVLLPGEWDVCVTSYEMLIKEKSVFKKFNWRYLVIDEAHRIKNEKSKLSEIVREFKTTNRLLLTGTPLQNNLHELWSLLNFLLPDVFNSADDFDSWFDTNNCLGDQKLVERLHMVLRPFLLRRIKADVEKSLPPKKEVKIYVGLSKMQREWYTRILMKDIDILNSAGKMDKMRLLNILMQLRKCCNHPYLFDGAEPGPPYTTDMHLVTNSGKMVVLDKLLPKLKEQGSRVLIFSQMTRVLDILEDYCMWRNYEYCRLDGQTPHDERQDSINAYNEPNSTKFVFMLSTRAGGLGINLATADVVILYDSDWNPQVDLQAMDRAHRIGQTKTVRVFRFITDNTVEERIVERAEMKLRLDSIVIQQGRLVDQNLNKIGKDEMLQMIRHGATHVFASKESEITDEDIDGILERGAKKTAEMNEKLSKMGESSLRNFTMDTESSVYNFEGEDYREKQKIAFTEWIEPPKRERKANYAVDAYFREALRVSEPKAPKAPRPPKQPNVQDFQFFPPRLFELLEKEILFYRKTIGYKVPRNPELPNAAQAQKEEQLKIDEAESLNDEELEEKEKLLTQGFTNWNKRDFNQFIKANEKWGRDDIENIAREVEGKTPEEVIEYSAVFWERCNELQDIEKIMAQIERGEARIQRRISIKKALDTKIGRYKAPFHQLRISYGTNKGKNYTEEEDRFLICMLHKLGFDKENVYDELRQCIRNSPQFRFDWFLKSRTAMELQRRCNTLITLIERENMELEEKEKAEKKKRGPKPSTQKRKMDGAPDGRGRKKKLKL

Like-named read-outs stand apart in the source and are kept apart here. No constants are given. Whether binding was seen depends on the method and setting. Binding seen in cells or lysates may run through a third protein. Some results given as binding are weak or reduced against the parent protein; the word gives no strength. For some assays here: Sequences can lack the tags named with a protein.

Test [1] has as its target Flag-GABARAP (HEK293T) (human) (UniProt O95166). Nature of the test: co-IP.
Test [2] deals with HA-WSTF △474-483 (HEK293T) (UniProt Q9UIG0). Nature of the test: co-IP.
For test [3], the target named is T1, HA-WSTF wild-type (HEK293T) (UniProt Q9UIG0).
T1 sequence: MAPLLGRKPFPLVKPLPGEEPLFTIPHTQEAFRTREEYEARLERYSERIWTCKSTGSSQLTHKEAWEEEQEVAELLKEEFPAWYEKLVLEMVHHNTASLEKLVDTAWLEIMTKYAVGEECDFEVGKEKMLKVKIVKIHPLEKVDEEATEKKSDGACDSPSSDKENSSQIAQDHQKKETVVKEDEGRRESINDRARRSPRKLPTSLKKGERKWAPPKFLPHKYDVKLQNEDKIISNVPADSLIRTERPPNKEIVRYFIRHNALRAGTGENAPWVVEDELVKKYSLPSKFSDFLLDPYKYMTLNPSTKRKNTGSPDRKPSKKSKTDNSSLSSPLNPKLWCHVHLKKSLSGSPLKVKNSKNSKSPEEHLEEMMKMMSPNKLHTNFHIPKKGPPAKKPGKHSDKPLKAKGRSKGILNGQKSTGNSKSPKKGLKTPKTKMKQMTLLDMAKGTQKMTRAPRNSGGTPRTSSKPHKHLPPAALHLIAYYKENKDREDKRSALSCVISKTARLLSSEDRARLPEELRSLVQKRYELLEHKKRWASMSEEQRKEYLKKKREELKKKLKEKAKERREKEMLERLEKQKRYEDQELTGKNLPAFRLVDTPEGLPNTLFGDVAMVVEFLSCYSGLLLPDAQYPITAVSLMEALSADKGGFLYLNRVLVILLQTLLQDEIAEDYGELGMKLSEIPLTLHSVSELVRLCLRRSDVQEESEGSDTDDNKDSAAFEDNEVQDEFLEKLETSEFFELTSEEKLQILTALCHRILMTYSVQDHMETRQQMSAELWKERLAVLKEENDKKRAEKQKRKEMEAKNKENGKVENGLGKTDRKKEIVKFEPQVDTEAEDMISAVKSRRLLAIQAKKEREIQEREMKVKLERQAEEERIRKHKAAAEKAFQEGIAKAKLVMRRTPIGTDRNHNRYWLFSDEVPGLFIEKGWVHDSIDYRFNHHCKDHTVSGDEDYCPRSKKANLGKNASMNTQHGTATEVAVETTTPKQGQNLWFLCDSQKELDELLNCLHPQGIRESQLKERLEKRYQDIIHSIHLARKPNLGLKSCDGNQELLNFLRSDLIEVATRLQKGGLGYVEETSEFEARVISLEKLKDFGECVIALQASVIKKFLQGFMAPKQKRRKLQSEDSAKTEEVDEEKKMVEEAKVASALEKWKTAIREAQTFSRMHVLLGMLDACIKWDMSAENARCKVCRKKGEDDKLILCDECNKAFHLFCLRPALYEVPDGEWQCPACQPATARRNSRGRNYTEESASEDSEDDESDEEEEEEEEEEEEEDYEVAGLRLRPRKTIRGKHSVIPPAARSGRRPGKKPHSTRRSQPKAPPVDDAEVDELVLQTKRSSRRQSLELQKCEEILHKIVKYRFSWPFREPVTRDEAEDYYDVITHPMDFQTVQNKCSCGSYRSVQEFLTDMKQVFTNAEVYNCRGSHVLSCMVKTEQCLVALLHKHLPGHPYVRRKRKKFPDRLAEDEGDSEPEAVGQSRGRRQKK
Nature of the test: co-IP.

The target of a further test is HA-WSTF L476A (HEK293T) (UniProt Q9UIG0). Put plainly: co-IP.
Test [4] has as its target T1, HA-WSTF wild-type (HEK293T). Nature of the test: co-IP. This is another data set of the same source.
In test [5] the target is In vitro translated Flag-p65 (UniProt Q04206). Put plainly: co-IP.
The next test concerns the target GST-GABARAP (human) (UniProt O95166). Nature of the test: pull-down.
Test [6] concerns the target p65, endogenous in IMR90 (human (endogenous in IMR90)) (UniProt Q04206). Put plainly: co-IP.

On to “NLS-HA-PP6 (WSTF 406-552) (from UniProt Q9UIG0 406-552) (domain or fragment)”, for which, in test [1], the binding result is “binds”.

In the case of “SNF2H, endogenous in HEK293T (from UniProt O60264 1-1052)”, the binding result (in test [2]; in test [3]; in the test with HA-WSTF L476A (HEK293T); in test [4]) was “binds” each time.

B1: In vitro translated HA-WSTF (wild-type) (protein, UniProt Q9UIG0 1-1483)
chain: MAPLLGRKPFPLVKPLPGEEPLFTIPHTQEAFRTREEYEARLERYSERIWTCKSTGSSQLTHKEAWEEEQEVAELLKEEFPAWYEKLVLEMVHHNTASLEKLVDTAWLEIMTKYAVGEECDFEVGKEKMLKVKIVKIHPLEKVDEEATEKKSDGACDSPSSDKENSSQIAQDHQKKETVVKEDEGRRESINDRARRSPRKLPTSLKKGERKWAPPKFLPHKYDVKLQNEDKIISNVPADSLIRTERPPNKEIVRYFIRHNALRAGTGENAPWVVEDELVKKYSLPSKFSDFLLDPYKYMTLNPSTKRKNTGSPDRKPSKKSKTDNSSLSSPLNPKLWCHVHLKKSLSGSPLKVKNSKNSKSPEEHLEEMMKMMSPNKLHTNFHIPKKGPPAKKPGKHSDKPLKAKGRSKGILNGQKSTGNSKSPKKGLKTPKTKMKQMTLLDMAKGTQKMTRAPRNSGGTPRTSSKPHKHLPPAALHLIAYYKENKDREDKRSALSCVISKTARLLSSEDRARLPEELRSLVQKRYELLEHKKRWASMSEEQRKEYLKKKREELKKKLKEKAKERREKEMLERLEKQKRYEDQELTGKNLPAFRLVDTPEGLPNTLFGDVAMVVEFLSCYSGLLLPDAQYPITAVSLMEALSADKGGFLYLNRVLVILLQTLLQDEIAEDYGELGMKLSEIPLTLHSVSELVRLCLRRSDVQEESEGSDTDDNKDSAAFEDNEVQDEFLEKLETSEFFELTSEEKLQILTALCHRILMTYSVQDHMETRQQMSAELWKERLAVLKEENDKKRAEKQKRKEMEAKNKENGKVENGLGKTDRKKEIVKFEPQVDTEAEDMISAVKSRRLLAIQAKKEREIQEREMKVKLERQAEEERIRKHKAAAEKAFQEGIAKAKLVMRRTPIGTDRNHNRYWLFSDEVPGLFIEKGWVHDSIDYRFNHHCKDHTVSGDEDYCPRSKKANLGKNASMNTQHGTATEVAVETTTPKQGQNLWFLCDSQKELDELLNCLHPQGIRESQLKERLEKRYQDIIHSIHLARKPNLGLKSCDGNQELLNFLRSDLIEVATRLQKGGLGYVEETSEFEARVISLEKLKDFGECVIALQASVIKKFLQGFMAPKQKRRKLQSEDSAKTEEVDEEKKMVEEAKVASALEKWKTAIREAQTFSRMHVLLGMLDACIKWDMSAENARCKVCRKKGEDDKLILCDECNKAFHLFCLRPALYEVPDGEWQCPACQPATARRNSRGRNYTEESASEDSEDDESDEEEEEEEEEEEEEDYEVAGLRLRPRKTIRGKHSVIPPAARSGRRPGKKPHSTRRSQPKAPPVDDAEVDELVLQTKRSSRRQSLELQKCEEILHKIVKYRFSWPFREPVTRDEAEDYYDVITHPMDFQTVQNKCSCGSYRSVQEFLTDMKQVFTNAEVYNCRGSHVLSCMVKTEQCLVALLHKHLPGHPYVRRKRKKFPDRLAEDEGDSEPEAVGQSRGRRQKK
With B1, the binding result (in test [5]; with GST-GABARAP (human)) was “binds” in each case.

B2: HA-WSTF (IMR90, stably expressed) (protein, UniProt Q9UIG0 1-1483)
chain: MAPLLGRKPFPLVKPLPGEEPLFTIPHTQEAFRTREEYEARLERYSERIWTCKSTGSSQLTHKEAWEEEQEVAELLKEEFPAWYEKLVLEMVHHNTASLEKLVDTAWLEIMTKYAVGEECDFEVGKEKMLKVKIVKIHPLEKVDEEATEKKSDGACDSPSSDKENSSQIAQDHQKKETVVKEDEGRRESINDRARRSPRKLPTSLKKGERKWAPPKFLPHKYDVKLQNEDKIISNVPADSLIRTERPPNKEIVRYFIRHNALRAGTGENAPWVVEDELVKKYSLPSKFSDFLLDPYKYMTLNPSTKRKNTGSPDRKPSKKSKTDNSSLSSPLNPKLWCHVHLKKSLSGSPLKVKNSKNSKSPEEHLEEMMKMMSPNKLHTNFHIPKKGPPAKKPGKHSDKPLKAKGRSKGILNGQKSTGNSKSPKKGLKTPKTKMKQMTLLDMAKGTQKMTRAPRNSGGTPRTSSKPHKHLPPAALHLIAYYKENKDREDKRSALSCVISKTARLLSSEDRARLPEELRSLVQKRYELLEHKKRWASMSEEQRKEYLKKKREELKKKLKEKAKERREKEMLERLEKQKRYEDQELTGKNLPAFRLVDTPEGLPNTLFGDVAMVVEFLSCYSGLLLPDAQYPITAVSLMEALSADKGGFLYLNRVLVILLQTLLQDEIAEDYGELGMKLSEIPLTLHSVSELVRLCLRRSDVQEESEGSDTDDNKDSAAFEDNEVQDEFLEKLETSEFFELTSEEKLQILTALCHRILMTYSVQDHMETRQQMSAELWKERLAVLKEENDKKRAEKQKRKEMEAKNKENGKVENGLGKTDRKKEIVKFEPQVDTEAEDMISAVKSRRLLAIQAKKEREIQEREMKVKLERQAEEERIRKHKAAAEKAFQEGIAKAKLVMRRTPIGTDRNHNRYWLFSDEVPGLFIEKGWVHDSIDYRFNHHCKDHTVSGDEDYCPRSKKANLGKNASMNTQHGTATEVAVETTTPKQGQNLWFLCDSQKELDELLNCLHPQGIRESQLKERLEKRYQDIIHSIHLARKPNLGLKSCDGNQELLNFLRSDLIEVATRLQKGGLGYVEETSEFEARVISLEKLKDFGECVIALQASVIKKFLQGFMAPKQKRRKLQSEDSAKTEEVDEEKKMVEEAKVASALEKWKTAIREAQTFSRMHVLLGMLDACIKWDMSAENARCKVCRKKGEDDKLILCDECNKAFHLFCLRPALYEVPDGEWQCPACQPATARRNSRGRNYTEESASEDSEDDESDEEEEEEEEEEEEEDYEVAGLRLRPRKTIRGKHSVIPPAARSGRRPGKKPHSTRRSQPKAPPVDDAEVDELVLQTKRSSRRQSLELQKCEEILHKIVKYRFSWPFREPVTRDEAEDYYDVITHPMDFQTVQNKCSCGSYRSVQEFLTDMKQVFTNAEVYNCRGSHVLSCMVKTEQCLVALLHKHLPGHPYVRRKRKKFPDRLAEDEGDSEPEAVGQSRGRRQKK
Consider B2, for which the binding result in test [6] is given as “binds”.
